Results taken from PMC11633105.
No constants are given. Whether binding was seen depends on the method and setting. Binding seen in cells or lysates may run through a third protein. Some results given as binding are weak or reduced against the parent protein; the word gives no strength.

Sequences of proteins named here, by UniProt entry; tags and fusion partners are left off.
UniProt Q7Z434: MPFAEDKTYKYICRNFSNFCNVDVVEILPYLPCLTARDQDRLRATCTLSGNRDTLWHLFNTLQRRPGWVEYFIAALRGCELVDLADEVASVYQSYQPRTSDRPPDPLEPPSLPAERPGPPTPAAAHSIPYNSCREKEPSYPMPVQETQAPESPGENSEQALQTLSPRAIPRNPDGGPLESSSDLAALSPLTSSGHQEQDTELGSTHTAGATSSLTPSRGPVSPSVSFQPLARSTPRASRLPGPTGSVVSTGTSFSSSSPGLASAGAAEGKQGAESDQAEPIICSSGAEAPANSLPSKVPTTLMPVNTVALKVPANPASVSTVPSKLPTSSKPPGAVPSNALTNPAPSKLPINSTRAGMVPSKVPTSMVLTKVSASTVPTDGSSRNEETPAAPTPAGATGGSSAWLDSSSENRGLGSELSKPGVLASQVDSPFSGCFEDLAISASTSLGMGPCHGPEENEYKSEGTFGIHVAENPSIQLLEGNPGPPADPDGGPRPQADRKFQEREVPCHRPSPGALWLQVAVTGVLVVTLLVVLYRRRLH

T1: Endogenous DDX11 (human (endogenous in HEK293T)) (UniProt Q96FC9)
T1 sequence: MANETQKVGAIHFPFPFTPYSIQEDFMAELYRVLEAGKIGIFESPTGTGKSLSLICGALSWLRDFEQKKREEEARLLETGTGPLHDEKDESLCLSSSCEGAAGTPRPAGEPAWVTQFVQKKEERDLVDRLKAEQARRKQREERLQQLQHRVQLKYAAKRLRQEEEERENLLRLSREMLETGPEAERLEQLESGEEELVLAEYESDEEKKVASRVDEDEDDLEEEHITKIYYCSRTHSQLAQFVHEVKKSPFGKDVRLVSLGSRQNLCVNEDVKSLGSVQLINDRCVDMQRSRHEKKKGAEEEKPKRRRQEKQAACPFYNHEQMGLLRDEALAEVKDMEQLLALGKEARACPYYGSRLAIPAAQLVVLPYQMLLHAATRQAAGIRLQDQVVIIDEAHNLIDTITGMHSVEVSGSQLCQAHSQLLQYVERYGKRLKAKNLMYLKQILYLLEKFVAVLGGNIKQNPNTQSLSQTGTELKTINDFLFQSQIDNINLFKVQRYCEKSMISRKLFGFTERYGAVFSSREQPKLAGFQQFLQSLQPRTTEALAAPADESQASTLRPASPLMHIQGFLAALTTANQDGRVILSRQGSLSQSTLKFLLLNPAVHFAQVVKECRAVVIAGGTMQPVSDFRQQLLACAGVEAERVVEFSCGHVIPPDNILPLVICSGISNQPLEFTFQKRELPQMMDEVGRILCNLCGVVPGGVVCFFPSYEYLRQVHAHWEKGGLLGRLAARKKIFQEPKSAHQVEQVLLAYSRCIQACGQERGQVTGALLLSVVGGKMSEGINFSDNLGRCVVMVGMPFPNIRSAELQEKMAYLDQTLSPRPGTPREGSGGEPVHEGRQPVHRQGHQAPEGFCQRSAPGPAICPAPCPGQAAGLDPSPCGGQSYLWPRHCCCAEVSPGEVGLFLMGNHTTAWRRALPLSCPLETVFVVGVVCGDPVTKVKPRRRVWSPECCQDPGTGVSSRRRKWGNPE


Target: T1, Endogenous DDX11 (human (endogenous in HEK293T))
Experiment: co-IP; endogenous proteins; HEK293T uninfected or infected with SeV for 12 h; immunoprecipitation with anti-DDX11 antibody, IgG as negative control; western blot

Row | binding | Molecule
1 | binds | Endogenous MAVS (from UniProt Q7Z434 1-540)
2 | binds | Endogenous RIG-I (protein, UniProt O95786 1-925) MTTEQRRSLQAFQDYIRKTLDPTYILSYMAPWFREEEVQYIQAEKNNKGPMEAATLFLKFLLELQEEGWFRGFLDALDHAGYSGLYEAIESWDFKKIEKLEEYRLLLKRLQPEFKTRIIPTDIISDLSECLINQECEEILQICSTKGMMAGAEKLVECLLRSDKENWPKTLKLALEKERNKFSELWIVEKGIKDVETEDLEDKMETSDIQIFYQEDPECQNLSENSCPPSEVSDTNLYSPFKPRNYQLELALPAMKGKNTIICAPTGCGKTFVSLLICEHHLKKFPQGQKGKVVFFANQIPVYEQQKSVFSKYFERHGYRVTGISGATAENVPVEQIVENNDIIILTPQILVNNLKKGTIPSLSIFTLMIFDECHNTSKQHPYNMIMFNYLDQKLGGSSGPLPQVIGLTASVGVGDAKNTDEALDYICKLCASLDASVIATVKHNLEELEQVVYKPQKFFRKVESRISDKFKYIIAQLMRDTESLAKRICKDLENLSQIQNREFGTQKYEQWIVTVQKACMVFQMPDKDEESRICKALFLYTSHLRKYNDALIISEHARMKDALDYLKDFFSNVRAAGFDEIEQDLTQRFEEKLQELESVSRDPSNENPKLEDLCFILQEEYHLNPETITILFVKTRALVDALKNWIEGNPKLSFLKPGILTGRGKTNQNTGMTLPAQKCILDAFKASGDHNILIATSVADEGIDIAQCNLVILYEYVGNVIKMIQTRGRGRARGSKCFLLTSNAGVIEKEQINMYKEKMMNDSILRLQTWDEAVFREKILHIQTHEKFIRDSQEKPKPVPDKENKKLLCRKCKALACYTADVRVIEECHYTVLGDAFKECFVSRPHPKPKQFSSFEKRAKIFCARQNCSHDWGIHVKYKTFEIPVIKIESFVVEDIATGVQTLYSKWKDFHFEKIPFDPAEMSK
